In the supplement of paper PMC10849652:
The list shows a part of the results.

The chains behind the UniProt entries cited, without tags or fusion partners. Where a name states a change or a piece, a line headed by the entry shows the natural chain unless it says otherwise.
UniProt O76070, whole entry, looked up: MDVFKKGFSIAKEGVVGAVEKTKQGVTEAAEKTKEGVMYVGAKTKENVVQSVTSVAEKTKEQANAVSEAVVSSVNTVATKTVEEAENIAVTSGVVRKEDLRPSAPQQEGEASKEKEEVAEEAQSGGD
UniProt Q12824, whole entry, looked up: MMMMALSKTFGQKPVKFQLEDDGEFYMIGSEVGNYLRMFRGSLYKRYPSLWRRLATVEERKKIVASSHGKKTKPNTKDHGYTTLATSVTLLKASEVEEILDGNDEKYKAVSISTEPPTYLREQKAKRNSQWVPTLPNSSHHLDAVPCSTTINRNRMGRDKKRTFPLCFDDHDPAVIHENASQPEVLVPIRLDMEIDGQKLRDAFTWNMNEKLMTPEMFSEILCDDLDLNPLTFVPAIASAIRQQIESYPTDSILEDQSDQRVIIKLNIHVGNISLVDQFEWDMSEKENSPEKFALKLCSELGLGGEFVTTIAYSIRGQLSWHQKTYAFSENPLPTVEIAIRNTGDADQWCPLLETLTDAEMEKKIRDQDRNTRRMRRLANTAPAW
UniProt Q7KZF4: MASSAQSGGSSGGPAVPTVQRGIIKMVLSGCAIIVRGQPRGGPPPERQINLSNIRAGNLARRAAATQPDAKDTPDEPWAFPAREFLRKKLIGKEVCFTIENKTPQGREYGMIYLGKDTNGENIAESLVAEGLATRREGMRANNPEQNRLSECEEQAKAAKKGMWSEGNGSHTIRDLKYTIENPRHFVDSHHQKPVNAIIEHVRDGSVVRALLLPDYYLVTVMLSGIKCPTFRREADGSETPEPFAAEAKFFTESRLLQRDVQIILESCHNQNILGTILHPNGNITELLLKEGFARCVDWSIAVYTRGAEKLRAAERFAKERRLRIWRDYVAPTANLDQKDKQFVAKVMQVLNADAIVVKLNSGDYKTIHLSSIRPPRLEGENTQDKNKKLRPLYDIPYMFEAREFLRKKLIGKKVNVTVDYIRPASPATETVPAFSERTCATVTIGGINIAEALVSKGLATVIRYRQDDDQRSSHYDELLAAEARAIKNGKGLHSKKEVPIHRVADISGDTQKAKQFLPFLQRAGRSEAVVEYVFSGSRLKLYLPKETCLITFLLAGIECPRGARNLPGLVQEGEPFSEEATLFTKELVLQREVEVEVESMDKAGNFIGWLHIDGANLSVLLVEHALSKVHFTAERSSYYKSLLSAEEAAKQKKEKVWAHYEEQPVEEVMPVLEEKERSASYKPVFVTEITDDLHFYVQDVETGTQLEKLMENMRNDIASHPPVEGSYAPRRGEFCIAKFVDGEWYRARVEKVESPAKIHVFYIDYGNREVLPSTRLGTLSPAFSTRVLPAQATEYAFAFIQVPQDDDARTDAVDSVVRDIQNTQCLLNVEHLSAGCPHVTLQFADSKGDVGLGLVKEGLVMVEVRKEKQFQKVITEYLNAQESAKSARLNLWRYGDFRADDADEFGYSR
UniProt P09486: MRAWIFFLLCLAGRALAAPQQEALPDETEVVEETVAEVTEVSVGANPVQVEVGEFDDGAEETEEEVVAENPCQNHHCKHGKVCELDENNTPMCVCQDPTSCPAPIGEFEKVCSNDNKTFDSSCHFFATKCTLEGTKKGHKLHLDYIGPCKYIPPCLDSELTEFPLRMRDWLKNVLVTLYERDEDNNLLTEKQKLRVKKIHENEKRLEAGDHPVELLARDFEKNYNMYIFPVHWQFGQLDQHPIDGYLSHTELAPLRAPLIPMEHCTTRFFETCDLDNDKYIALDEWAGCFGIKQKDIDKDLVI
UniProt Q92925, whole entry, looked up: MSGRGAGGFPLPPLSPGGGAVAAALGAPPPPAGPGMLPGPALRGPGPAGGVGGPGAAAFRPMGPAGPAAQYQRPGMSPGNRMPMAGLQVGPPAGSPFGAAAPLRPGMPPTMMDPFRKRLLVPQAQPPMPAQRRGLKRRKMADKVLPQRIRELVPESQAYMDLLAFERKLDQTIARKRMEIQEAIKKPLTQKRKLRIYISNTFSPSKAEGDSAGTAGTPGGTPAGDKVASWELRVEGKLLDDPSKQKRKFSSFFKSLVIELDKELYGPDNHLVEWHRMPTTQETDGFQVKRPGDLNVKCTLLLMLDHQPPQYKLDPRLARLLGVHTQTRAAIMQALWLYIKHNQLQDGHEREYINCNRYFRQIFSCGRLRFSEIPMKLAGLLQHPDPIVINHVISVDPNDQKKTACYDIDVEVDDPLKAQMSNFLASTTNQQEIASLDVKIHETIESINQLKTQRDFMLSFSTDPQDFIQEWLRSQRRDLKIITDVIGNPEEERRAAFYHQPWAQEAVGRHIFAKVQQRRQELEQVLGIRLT
UniProt Q9H0W8: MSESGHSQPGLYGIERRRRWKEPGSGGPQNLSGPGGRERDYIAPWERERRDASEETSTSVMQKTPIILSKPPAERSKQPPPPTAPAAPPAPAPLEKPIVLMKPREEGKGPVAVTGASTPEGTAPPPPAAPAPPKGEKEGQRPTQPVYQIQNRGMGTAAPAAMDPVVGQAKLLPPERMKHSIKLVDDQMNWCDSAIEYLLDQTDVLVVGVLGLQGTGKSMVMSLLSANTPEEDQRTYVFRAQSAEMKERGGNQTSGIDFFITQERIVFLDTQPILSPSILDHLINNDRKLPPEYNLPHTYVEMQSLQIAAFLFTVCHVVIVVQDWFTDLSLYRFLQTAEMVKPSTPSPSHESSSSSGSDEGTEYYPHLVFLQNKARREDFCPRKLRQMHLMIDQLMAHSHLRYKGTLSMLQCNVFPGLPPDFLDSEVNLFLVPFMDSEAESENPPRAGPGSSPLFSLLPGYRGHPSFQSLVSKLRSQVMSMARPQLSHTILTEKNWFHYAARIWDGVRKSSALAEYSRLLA
UniProt O00161: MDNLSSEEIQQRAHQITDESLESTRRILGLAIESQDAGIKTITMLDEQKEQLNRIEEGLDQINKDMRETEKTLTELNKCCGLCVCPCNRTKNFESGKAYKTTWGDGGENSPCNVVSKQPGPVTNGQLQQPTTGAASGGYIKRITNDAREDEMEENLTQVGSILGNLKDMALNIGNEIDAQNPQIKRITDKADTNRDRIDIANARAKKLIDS
UniProt P08579, whole entry, looked up: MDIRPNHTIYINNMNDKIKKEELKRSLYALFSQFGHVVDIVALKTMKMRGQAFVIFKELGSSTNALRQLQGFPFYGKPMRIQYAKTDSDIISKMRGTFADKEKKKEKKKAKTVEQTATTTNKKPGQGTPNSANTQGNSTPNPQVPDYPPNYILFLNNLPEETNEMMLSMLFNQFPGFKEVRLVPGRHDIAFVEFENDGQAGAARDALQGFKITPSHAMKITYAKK
UniProt Q9BX66: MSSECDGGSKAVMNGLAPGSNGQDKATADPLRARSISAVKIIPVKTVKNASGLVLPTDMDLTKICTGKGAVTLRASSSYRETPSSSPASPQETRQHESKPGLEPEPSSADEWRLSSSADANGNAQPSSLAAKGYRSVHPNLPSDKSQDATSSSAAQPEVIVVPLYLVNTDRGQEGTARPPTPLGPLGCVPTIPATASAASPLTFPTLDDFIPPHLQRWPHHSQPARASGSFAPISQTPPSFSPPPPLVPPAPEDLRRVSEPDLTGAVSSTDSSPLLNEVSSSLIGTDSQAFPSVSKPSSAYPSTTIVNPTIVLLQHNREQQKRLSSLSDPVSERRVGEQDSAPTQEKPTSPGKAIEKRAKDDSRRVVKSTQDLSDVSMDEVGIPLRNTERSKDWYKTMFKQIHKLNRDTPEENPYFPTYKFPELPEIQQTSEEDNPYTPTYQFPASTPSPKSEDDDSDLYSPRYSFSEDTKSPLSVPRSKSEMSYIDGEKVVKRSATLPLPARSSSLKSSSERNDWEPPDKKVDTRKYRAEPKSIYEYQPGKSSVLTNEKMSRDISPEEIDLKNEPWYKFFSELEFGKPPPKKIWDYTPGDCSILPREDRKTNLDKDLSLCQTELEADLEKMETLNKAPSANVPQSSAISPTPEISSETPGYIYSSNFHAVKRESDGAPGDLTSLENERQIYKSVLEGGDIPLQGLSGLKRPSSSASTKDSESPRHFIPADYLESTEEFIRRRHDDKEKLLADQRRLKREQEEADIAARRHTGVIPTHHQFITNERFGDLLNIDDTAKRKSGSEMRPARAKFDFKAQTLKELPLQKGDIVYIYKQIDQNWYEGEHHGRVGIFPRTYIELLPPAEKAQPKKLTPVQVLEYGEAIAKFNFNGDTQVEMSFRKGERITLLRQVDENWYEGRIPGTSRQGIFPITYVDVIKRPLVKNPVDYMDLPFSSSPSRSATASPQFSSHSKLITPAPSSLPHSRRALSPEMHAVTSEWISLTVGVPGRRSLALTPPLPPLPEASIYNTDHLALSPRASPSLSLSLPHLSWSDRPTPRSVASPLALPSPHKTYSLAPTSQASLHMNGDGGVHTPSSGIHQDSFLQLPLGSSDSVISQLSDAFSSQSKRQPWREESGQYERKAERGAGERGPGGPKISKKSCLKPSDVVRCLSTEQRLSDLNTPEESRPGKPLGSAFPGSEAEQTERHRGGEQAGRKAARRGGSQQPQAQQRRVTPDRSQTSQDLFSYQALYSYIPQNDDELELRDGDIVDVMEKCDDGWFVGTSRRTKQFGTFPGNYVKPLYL
UniProt Q9UPR3: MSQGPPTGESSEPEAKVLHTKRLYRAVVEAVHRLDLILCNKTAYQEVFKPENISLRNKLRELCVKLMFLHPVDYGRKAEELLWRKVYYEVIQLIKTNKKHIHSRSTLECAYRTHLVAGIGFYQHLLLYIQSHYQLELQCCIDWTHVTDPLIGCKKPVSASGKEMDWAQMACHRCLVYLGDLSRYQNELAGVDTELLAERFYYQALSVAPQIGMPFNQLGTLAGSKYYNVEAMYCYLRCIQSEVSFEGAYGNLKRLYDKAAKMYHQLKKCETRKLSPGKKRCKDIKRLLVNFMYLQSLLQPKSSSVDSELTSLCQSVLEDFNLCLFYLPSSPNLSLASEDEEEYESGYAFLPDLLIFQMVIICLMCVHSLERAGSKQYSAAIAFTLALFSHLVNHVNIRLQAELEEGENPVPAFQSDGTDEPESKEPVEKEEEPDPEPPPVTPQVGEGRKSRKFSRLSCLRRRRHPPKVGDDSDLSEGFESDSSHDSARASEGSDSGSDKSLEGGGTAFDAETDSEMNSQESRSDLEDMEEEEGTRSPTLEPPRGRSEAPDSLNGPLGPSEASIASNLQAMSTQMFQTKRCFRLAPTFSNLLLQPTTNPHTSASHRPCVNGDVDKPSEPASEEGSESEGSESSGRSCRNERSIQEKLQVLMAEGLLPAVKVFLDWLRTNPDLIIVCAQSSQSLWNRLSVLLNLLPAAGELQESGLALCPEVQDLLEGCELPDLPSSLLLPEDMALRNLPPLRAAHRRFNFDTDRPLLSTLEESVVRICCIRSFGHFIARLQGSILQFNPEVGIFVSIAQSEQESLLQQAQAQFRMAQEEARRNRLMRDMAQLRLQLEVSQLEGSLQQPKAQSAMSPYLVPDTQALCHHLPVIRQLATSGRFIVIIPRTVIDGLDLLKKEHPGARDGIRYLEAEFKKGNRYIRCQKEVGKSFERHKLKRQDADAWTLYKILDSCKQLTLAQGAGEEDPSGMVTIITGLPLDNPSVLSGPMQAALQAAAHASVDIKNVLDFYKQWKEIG
UniProt Q7Z3B0: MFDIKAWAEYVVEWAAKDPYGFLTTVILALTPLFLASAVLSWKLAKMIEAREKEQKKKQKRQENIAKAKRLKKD
UniProt Q15036: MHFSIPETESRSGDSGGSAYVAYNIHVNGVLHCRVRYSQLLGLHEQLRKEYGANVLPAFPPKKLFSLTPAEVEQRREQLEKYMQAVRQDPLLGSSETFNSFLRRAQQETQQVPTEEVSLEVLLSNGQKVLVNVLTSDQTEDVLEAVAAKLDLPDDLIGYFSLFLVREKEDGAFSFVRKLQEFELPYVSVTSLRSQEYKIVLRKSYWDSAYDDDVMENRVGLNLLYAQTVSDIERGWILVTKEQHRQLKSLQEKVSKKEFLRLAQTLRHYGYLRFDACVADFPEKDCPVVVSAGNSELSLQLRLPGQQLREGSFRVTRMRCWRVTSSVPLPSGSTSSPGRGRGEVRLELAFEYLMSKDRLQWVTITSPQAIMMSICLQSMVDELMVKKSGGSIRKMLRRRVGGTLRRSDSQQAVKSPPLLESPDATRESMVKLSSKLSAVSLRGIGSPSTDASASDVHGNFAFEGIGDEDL
UniProt P62316, whole entry, looked up: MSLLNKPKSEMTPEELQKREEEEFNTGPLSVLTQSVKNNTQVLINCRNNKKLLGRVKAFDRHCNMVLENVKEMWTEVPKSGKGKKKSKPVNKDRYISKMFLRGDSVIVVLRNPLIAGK
UniProt Q6GMV2: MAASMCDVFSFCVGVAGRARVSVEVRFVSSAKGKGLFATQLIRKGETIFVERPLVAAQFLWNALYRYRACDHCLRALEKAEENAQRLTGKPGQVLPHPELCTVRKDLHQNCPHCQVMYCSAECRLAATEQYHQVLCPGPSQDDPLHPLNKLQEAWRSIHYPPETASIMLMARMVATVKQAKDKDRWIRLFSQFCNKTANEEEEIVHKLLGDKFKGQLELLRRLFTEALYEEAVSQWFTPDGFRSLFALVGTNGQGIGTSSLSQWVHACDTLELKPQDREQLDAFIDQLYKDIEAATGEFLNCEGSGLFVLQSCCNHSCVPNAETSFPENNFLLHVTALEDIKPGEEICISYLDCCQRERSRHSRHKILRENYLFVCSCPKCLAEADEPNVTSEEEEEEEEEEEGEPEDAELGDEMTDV

compound: CN1CC[C@H](c2c(O)cc(O)c3c(=O)cc(-c4ccccc4Cl)oc23)[C@H](O)C1 [alvocidib]; experiment: log2 fold change, soluble protein after heating vs DMSO (PISA); higher = thermal stabilisation; K562 lysate, 10 uM; active = over 0.2 and 3.5 SD of the protein, either way, in both replicates (recomputed)
How it was run: (§1)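 Values give the log-two fold change in thermal stability against solvent controls, from duplicates. Crude K562 extract at 1 mg/mL protein, made by dounce homogenisation in PBS pH 7.4 with 1 mM MgCl2, was treated with 10 μM compound for 30 min. After 3 min heating across 48°C-58°C, aliquots were pooled, adjusted to 0.5% NP-40 at 4°C and centrifuged at 21,000xg for 90 min. The supernatant was measured by TMTpro 16plex LC-MS/MS with channel sums equalised.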

log2 fold change, inactive:
SNX6, A0A0A0MRI2 0.076
SNCG (UniProt O76070) 0.007
SPANXB1 (UniProt Q9NS25) -0.124
SMNDC1 (UniProt O75940) -0.037
SNRNP200 (UniProt O75643) -0.001
SOS1 (UniProt Q07889) -0.022
SMC3 (UniProt Q9UQE7) -0.009
SMARCA5 (UniProt O60264) -0.014
SMARCB1 (UniProt Q12824) 0.048
SNRPD3 (UniProt P62318) -0.121
SON isoform 9 (UniProt P18583) -0.04
SND1 (UniProt Q7KZF4) 0.009
SPARC (UniProt P09486) -0.025
SMARCD2 (UniProt Q92925) 0.008
SPAG9 (UniProt O60271) -0.014
SMG9 (UniProt Q9H0W8) -0.025
SNAP23 (UniProt O00161) 0.035
SNRPB2 (UniProt P08579) 0.014
SNX1 (UniProt Q13596) -0.001
SORBS1 isoform 8 (UniProt Q9BX66) -0.014
SMG5 (UniProt Q9UPR3) 0.086
SNW1 (UniProt Q13573) 0.023
SMIM10L1 (UniProt P0DMW3) -0.068
SMIM15 (UniProt Q7Z3B0) -0.007
SNRPG (UniProt P62308) -0.104
SNX17 (UniProt Q15036) -0.018
SMUG1 (UniProt Q53HV7) -0.034
SNRPD2 (UniProt P62316) -0.054
SMYD5 (UniProt Q6GMV2) -0.031
SNX9 (UniProt Q9Y5X1) 0.02
SNRPB isoform 3 (UniProt P14678) -0.014
SNRPC (UniProt Q5TAL2) 0.012

compound: CN1CCc2c(c3ccccc3n2Cc2ccc(C(=O)NO)cc2)C1 [Tubastatin A]; experiment: as above
How it was run: as §1

log2 fold change, inactive:
SNX6, A0A0A0MRI2 -0.051
SNCG (UniProt O76070) 0.059
SMNDC1 (UniProt O75940) 0.053
SNRNP200 (UniProt O75643) -0.02
SOS1 (UniProt Q07889) -0.105
SMC3 (UniProt Q9UQE7) 0.006
SMARCA5 (UniProt O60264) -0.075
SMARCB1 (UniProt Q12824) -0.071
SNRPD3 (UniProt P62318) 0.014
SON isoform 9 (UniProt P18583) -0.038
SND1 (UniProt Q7KZF4) -0.121
SPARC (UniProt P09486) -0.061
SMARCD2 (UniProt Q92925) -0.089
SPAG9 (UniProt O60271) 0.047
SMG9 (UniProt Q9H0W8) -0.043
SNAP23 (UniProt O00161) 0.015
SNRPB2 (UniProt P08579) 0.032
SNX1 (UniProt Q13596) 0.002
SORBS1 isoform 8 (UniProt Q9BX66) 0.007
SMG5 (UniProt Q9UPR3) -0.075
SNW1 (UniProt Q13573) 0.051
SMIM15 (UniProt Q7Z3B0) 0.005
SNRPG (UniProt P62308) 0.02
SNX17 (UniProt Q15036) 0.017
SMUG1 (UniProt Q53HV7) -0.157
SNRPD2 (UniProt P62316) 0.027
SMYD5 (UniProt Q6GMV2) 0.014
SNX9 (UniProt Q9Y5X1) -0.118
SNRPB isoform 3 (UniProt P14678) 0.005
SNRPC (UniProt Q5TAL2) 0.067

compound: CNC(=O)C1=CC=CC=C1NC2=NC(=NC=C2Cl)NC3=C(C=C(C=C3)N4CCOCC4)OC; experiment: as above
How it was run: as §1

log2 fold change, inactive:
SNX6, A0A0A0MRI2 0.004
SNCG (UniProt O76070) 0.019
SMNDC1 (UniProt O75940) 0.048
SNRNP200 (UniProt O75643) -0.003
SOS1 (UniProt Q07889) -0.029
SMC3 (UniProt Q9UQE7) 0.003
SMARCA5 (UniProt O60264) -0.029
SMARCB1 (UniProt Q12824) -0.003
SNRPD3 (UniProt P62318) -0.003
SON isoform 9 (UniProt P18583) -0.016
SND1 (UniProt Q7KZF4) 0.015
SPARC (UniProt P09486) -0.202
SMARCD2 (UniProt Q92925) 0.011
SPAG9 (UniProt O60271) 0.005
SMG9 (UniProt Q9H0W8) 0.042
SNAP23 (UniProt O00161) -0.027
SNRPB2 (UniProt P08579) -0.027
SNX1 (UniProt Q13596) 0.015
SORBS1 isoform 8 (UniProt Q9BX66) 0.008
SMG5 (UniProt Q9UPR3) 0.014
SNW1 (UniProt Q13573) 0.02
SMIM15 (UniProt Q7Z3B0) 0.012
SNRPG (UniProt P62308) 0.018
SNX17 (UniProt Q15036) -0.012
SMUG1 (UniProt Q53HV7) 0.134
SNRPD2 (UniProt P62316) -0.003
SMYD5 (UniProt Q6GMV2) 0.016
SNX9 (UniProt Q9Y5X1) 0.008
SNRPB isoform 3 (UniProt P14678) 0.01
SNRPC (UniProt Q5TAL2) 0.008
